Tested on: human subjects who have been diagnosed with bipolar disorder and are acutely manic
Assay: Open-label cumulative-dosing clinical trial of pentazocine in acutely manic subjects
Type: in vivo
Description: A trial study was conducted to determine the effect of pentazocine on the mood of human subjects who have been diagnosed with bipolar disorder and are acutely manic. Ten subjects (7 male and 3 female) between the ages of 18 and 65 were enrolled in the study. All subjects were admitted to the hospital with a primary diagnosis of bipolar mania by DSMIV criteria. […] Subjects with a current history of substance abuse or a recent history of opiate dependence were excluded. All subjects were deemed competent to give informed consent by non-study physicians. After complete description of the study to the subjects, written informed consent was obtained.
The current study was undertaken in full compliance with federal requirements and with institutional review board approval. The study was designed as an open-label cumulative-dosing trial.
The three-day study consisted of pre-treatment, treatment, and post-treatment days with subjects rated in the morning on all three days and multiple times on the day of treatment. On the treatment day, an initial 50 mg of pentazocine was given by mouth. A second dose was given two hours following the initial dose. […]
Assessment of manic symptoms by YMRS were made daily at the same time in the morning on all three days of the study. […] Data were analyzed using a repeated measures ANOVA (SPSS 14.0).

## CC(C)=CCN1CCC2(C)c3cc(O)ccc3CC1C2C (centres unmarked) [pentazocine]
post-treatment day
  PRN medication use: 0.3 doses/patient
Study (treatment) day
  PRN medication use: 0.5 doses/patient
